Experimental data from PubChem BioAssay AID540276 (National Center for Advancing Translational Sciences (NCATS), 2011).
Several values for one entry are separate records, joined by “and”; a condition that tells them apart may be missing. Identical values can stand only once. In all, about 300,000 compounds went through this assay and about 5,400 (1.8%) were called active. The shares of active, inactive and inconclusive entries below differ from those in the screen. Calls follow the shape of the full dose curve; tested in HEK293 cells. A potency beside an inconclusive call is a rough fit, not a confirmed value.

Assay: qHTS for inhibitors of binding or entry into cells for Marburg Virus
Conditions: Marburg virus pseudotyped entry inhibition, cell reporter; activity change, negative = inhibition: at 37.8 µM (top of the series) unless noted
% is scaled to controls: 0 for no effect and ±100 for the full control effect; potency is read from the fitted curve at half-maximal effect.

| Structure (SMILES) | Potency | activity change, negative = inhibition |
| --- | --- | --- |
| COc1ccc2c(C)c(CCC(=O)NCCc3ccc(Cl)cc3)c(=O)oc2c1 | inactive | – |
| O=C(CSc1c2c(nc3cc(Cl)ccc13)CCCC2)NCc1ccco1 | inconclusive: 20 µM [inhibitor, partial curve, poor fit] | – |
| Cc1cc(C(F)F)n2nc(C(=O)Nc3ccc(F)c(Cl)c3)nc2n1 | inconclusive: 35.5 µM [inhibitor, single point] | – |
| O=C(Nc1ccc(C(=O)O)cc1)/C(=C\c1ccccc1)NC(=O)c1ccc(Br)cc1 | inconclusive: 0.562 µM [inhibitor, single point] | – |
| O=C(NNC(=S)NC(=O)c1sc2ccccc2c1Cl)c1ccc(Cl)cc1 | inconclusive: 15.8 µM [inhibitor, single point] | – |
| Cc1ccccc1N=C1SC(CC(=O)Nc2ccc3ccccc3c2)C(=O)N1Cc1ccccn1 (stereo unspecified) | inconclusive: 20.6 µM [inhibitor, partial curve, poor fit] | – |
| CCc1cccc(CC)c1NC(=O)COc1ccccc1C(=O)c1cc(C#N)c(=O)n(C2CCCCC2)c1 | inconclusive: 14.1 µM [inhibitor, partial curve, poor fit] | – |
| CC(=O)c1cnc2cc(-c3cccc(Br)c3)nn2c1C | inconclusive: 35.5 µM [activator, partial curve, poor fit] | – |
| COc1ccc(CNC(=O)Cn2c(=O)oc3cc(S(=O)(=O)N4CCCC4)ccc32)cc1 | inactive and inconclusive: 6.31 µM [inhibitor, full curve, poor fit] | – |
| Cc1cc(NC(=O)C2CCCC2)nc2c1c(=O)oc1ccccc12 | inconclusive: 11.2 µM [inhibitor, single point] | – |
| CC1CCCC(NC(=O)c2ccc(F)c(S(=O)(=O)N3CCOCC3)c2)C1C (stereo unspecified) | inconclusive: 20 µM [inhibitor, partial curve, poor fit] | – |
| C=CCc1ccccc1OCC(O)CN1CCN(CCN2C(=O)c3cccc4cccc(c34)C2=O)CC1 (stereo unspecified) | active: 11.2 µM | – |
| CC(=O)N1CCN(S(=O)(=O)c2cccc(C(=O)Nc3ccc(C)cn3)c2)CC1 | inactive | – |
| CCCSc1nc(N2CCOCC2)c2c(c1C#N)CCCC2 | inactive | – |
| CCn1nc(C)cc1C(=O)NC1CC(C)(C)Cc2c1cnn2-c1cccc(F)c1 (stereo unspecified) | inconclusive: 14.1 µM [inhibitor, single point] | – |
| O=C(Cc1ccc(Cl)cc1Cl)NC1CCCCCC1 | inconclusive: 11.2 µM [inhibitor, partial curve, poor fit] | – |
| O=C(COc1ccc(/C=N/NS(=O)(=O)c2ccccc2)cc1)Nc1ccccc1 | inactive | – |
| Cc1cccc(CSc2nc3ccncc3n2CC(=O)Nc2ccc(C)c(C)c2)c1 | inconclusive: 29.1 µM [activator, single point] | – |
| CCN(CC)CCn1c(SCC(=O)Nc2cccc(OC)c2)nc2c(sc3ccccc32)c1=O | inconclusive: 2.82 µM [inhibitor, full curve, poor fit] | – |
| FC(F)Oc1ccc(-c2csc(Cc3nnc4n3CCCCC4)n2)cc1 | inconclusive: 35.5 µM [inhibitor, partial curve, poor fit] | – |
| O=C(Nc1cc(C(F)(F)F)ccc1Cl)C(Sc1n[nH]c(=O)[nH]c1=O)c1ccccc1 (stereo unspecified) | inconclusive: 7.08 µM [inhibitor, full curve, poor fit] | – |
| CC(C)(C)C(=O)Nc1ccc(-c2cnco2)cc1 | inactive | – |

| Structure (SMILES) | Potency | activity change, negative = inhibition |
| --- | --- | --- |
| COc1ccc(C(Nc2cc(C)ccn2)c2ccc3ccc(C)nc3c2O)cc1 (stereo unspecified) | inconclusive: 35.5 µM [inhibitor, single point] | – |
| CC(C)Oc1ccc(C2(C#N)CC[N+](C)(C)CC2)cc1 | inconclusive: 0.631 µM [inhibitor, single point] | – |
| CCCc1ccc(C(=O)N2CCN(c3ccccc3OCC)CC2)cc1 | inactive | – |
| CCC(=C/c1sc2ccc3ccccc3c2[n+]1C)/C=C1\Sc2ccc3ccccc3c2N1C | active: 3.55 µM | – |
| c1csc(Cc2nc3ccccc3[nH]2)c1 | inconclusive: 16.4 µM [activator, single point] | – |
| CCCCn1c(N)c(N(Cc2ccccc2OC)C(=O)CN2C(=O)NC3(CCCC3)C2=O)c(=O)[nH]c1=O | inconclusive: 3.55 µM [activator, partial curve, poor fit] | – |
| O=C(CCS(=O)(=O)c1ccc(Br)s1)NC1CCCC1 | inactive | – |
| CC(=O)Oc1ccc(Cl)cc1/C=C/c1cc(OC(C)=O)c2ccccc2n1 | inconclusive: 18.4 µM [inhibitor, single point] | – |
| Cc1ccsc1/C=N/Nc1nc2ccccc2s1 | inconclusive: 11.2 µM [inhibitor, single point] | – |
| CC(C)Oc1ccc(/C=N/NC(=O)C(CSCc2ccccc2)NC(=O)c2ccc([N+](=O)[O-])cc2)cc1 (stereo unspecified) | inactive | – |
| C=CCOC(=O)C1C(C(=O)O)C2(Cl)C(Cl)=C(Cl)C1(Cl)C2(Cl)Cl (stereo unspecified) | inconclusive: 5.01 µM [inhibitor, full curve] | – |
| Cc1nc2ccc(NC(=O)C3CCN(S(=O)(=O)c4cccs4)CC3)cc2s1 | inconclusive: 29.1 µM [inhibitor, single point] | – |
| CC(C)N(C)CCOC(=O)c1ccc2c(c1)OCCO2 | inactive | – |
| CN(C)c1ccc(CN(C(=O)COc2ccccc2)C2CCS(=O)(=O)C2)cc1 (stereo unspecified) | inactive | – |
| Clc1cccc(N2CCN(c3ncnc4nc[nH]c34)CC2)c1 | inconclusive: 0.0046 µM [inhibitor, full curve, poor fit] | – |
| CC(C)NC(=O)c1ccc(N(Cc2ccc(Cl)cc2)S(C)(=O)=O)cc1 | inactive | – |
| COc1ccccc1N(C(=O)c1csnn1)C(C(=O)NC1CCCC1)c1ccccc1 (stereo unspecified) | inconclusive: 35.5 µM [inhibitor, single point] | – |
| COc1ccc(C(=O)Nc2ccc(S(=O)(=O)N3CCCCC3C)cc2)c(OC)c1OC (stereo unspecified) | inconclusive: 18.3 µM [inhibitor, single point] | – |
| COc1ccc(C(=O)Nc2ccc(N3CCN(C)CC3)cc2)cc1OC | inconclusive: 6.31 µM [activator, single point] | – |
| O=C(CSc1nnc(COc2ccccc2F)n1-c1ccccc1)NCc1ccco1 | inactive | – |
| CCOc1ccc(/C=C/c2[nH]c(=O)[nH]c(=O)c2[N+](=O)[O-])cc1 | inconclusive: 1.58 µM [inhibitor, single point] | – |
| Cc1cc(OC(C(=O)O)c2ccccc2)c2c(C)c(Cc3ccccc3)c(=O)oc2c1 (stereo unspecified) | inconclusive: 11.2 µM [activator, partial curve, poor fit] | – |

| Structure (SMILES) | Potency | activity change, negative = inhibition |
| --- | --- | --- |
| O=C(c1ccc2c(=O)n(CCc3ccccc3)c(=O)[nH]c2c1)N1CCN(c2ccc(Cl)cc2)CC1 | inconclusive: 35.5 µM [inhibitor, single point] | – |
| CNC(=O)Nc1cccc(-c2cc(-c3c(Cl)cccc3Cl)no2)c1 | inconclusive: 35.5 µM [inhibitor, single point] | – |
| COCCCNC(=O)CCc1c(C)nc2cc(-c3ccc(Cl)cc3)nn2c1C | inconclusive: 2.82 µM [activator, single point] | – |
| CN(C)c1ccc([C@@H]2[C@@H]([N+](=O)[O-])[C@H]3C=Cc4ccccc4N3[C@H]2C(=O)c2ccc(Cl)cc2)cc1 | inactive | – |
| CC(C)Cn1c(/C=C/c2ccc(F)cc2)nc2ccccc21 | inconclusive: 6.31 µM [activator, full curve, poor fit] | – |
| c1ccc(-n2ncc3c(NCCN4CCOCC4)ncnc32)cc1 | inconclusive: 5.17 µM [activator, partial curve, poor fit] | – |
| COc1ccc(-c2nc(CN3CCN(C(=O)c4ccco4)CC3)c(C)o2)c(F)c1 | inactive | – |
| O=C(CSc1nnc(CNC(=O)c2c(F)cccc2Cl)o1)Nc1cccc(F)c1 | inconclusive: 4.47 µM [activator, partial curve, poor fit] | – |
| COc1ccc(N2CCN(C(=O)c3ccc4ccccc4n3)CC2)cc1 | inactive | – |
| CCOC(=O)C(C#N)c1ccccn1 (stereo unspecified) | inactive | – |
| COc1ccc(N(C(C)=O)S(=O)(=O)c2cc(OC)ccc2OC)cc1 | inconclusive: 4.47 µM [inhibitor, full curve, poor fit] | – |
| CC(NC(=O)c1c(O)c2ccccc2n(C)c1=O)c1ccccc1 (stereo unspecified) | inconclusive: 35.5 µM [inhibitor, single point] | – |
| COc1cccc(C(=O)NC2CCN(CC(=O)Nc3nccs3)CC2)c1 | inconclusive: 4.11 µM [inhibitor, single point] | – |
| CCN1CCN(c2nc3ccccc3s2)CC1 | inconclusive: 0.651 µM [activator, full curve, poor fit] | – |
| Cc1ccc(OCCCC(=O)Nc2ccc(N3CCOCC3)cc2)c(C)c1 | – | inconclusive: 11.6% [activator] |
| O=S1(=O)c2ccccc2N=NN1Cc1cc(Cl)cc(Cl)c1 | inactive | – |
| COc1cc(C(=O)NCC2CCCN2S(=O)(=O)c2cccs2)cc(OC)c1OC (stereo unspecified) | inactive | – |
| O=P(O)(Cc1ccccc1)Cc1ccccc1 | inactive | – |
| CCOC(=O)C1=C(O)/C(=C/c2ccc(OCC(=O)O)c(OCC)c2)SC1=Nc1ccccc1 | inconclusive: 8.91 µM [activator, partial curve, poor fit] | – |
| COc1ccc(CCNC(=O)CCS(=O)(=O)c2ccc3c(c2)oc(=O)n3C)cc1OC | inactive | – |
| O=C(C1=NNCC1c1ccc(Cl)cc1)C1CO1 (stereo unspecified) | inconclusive: 9.2 µM [inhibitor, partial curve, poor fit] | – |
| Cc1ccc(C(=O)Nc2nc(-c3cc(Cl)sc3Cl)cs2)cc1 | inconclusive: 16.4 µM [inhibitor, partial curve, poor fit] | – |
